No constants are given. Whether binding was seen depends on the method and setting. In cells and extracts the contact can be indirect. Tags and fused reporters may be left off the sequences shown.

By UniProt entry, the sequences of proteins in these tests, tags left out.
UniProt Q92878: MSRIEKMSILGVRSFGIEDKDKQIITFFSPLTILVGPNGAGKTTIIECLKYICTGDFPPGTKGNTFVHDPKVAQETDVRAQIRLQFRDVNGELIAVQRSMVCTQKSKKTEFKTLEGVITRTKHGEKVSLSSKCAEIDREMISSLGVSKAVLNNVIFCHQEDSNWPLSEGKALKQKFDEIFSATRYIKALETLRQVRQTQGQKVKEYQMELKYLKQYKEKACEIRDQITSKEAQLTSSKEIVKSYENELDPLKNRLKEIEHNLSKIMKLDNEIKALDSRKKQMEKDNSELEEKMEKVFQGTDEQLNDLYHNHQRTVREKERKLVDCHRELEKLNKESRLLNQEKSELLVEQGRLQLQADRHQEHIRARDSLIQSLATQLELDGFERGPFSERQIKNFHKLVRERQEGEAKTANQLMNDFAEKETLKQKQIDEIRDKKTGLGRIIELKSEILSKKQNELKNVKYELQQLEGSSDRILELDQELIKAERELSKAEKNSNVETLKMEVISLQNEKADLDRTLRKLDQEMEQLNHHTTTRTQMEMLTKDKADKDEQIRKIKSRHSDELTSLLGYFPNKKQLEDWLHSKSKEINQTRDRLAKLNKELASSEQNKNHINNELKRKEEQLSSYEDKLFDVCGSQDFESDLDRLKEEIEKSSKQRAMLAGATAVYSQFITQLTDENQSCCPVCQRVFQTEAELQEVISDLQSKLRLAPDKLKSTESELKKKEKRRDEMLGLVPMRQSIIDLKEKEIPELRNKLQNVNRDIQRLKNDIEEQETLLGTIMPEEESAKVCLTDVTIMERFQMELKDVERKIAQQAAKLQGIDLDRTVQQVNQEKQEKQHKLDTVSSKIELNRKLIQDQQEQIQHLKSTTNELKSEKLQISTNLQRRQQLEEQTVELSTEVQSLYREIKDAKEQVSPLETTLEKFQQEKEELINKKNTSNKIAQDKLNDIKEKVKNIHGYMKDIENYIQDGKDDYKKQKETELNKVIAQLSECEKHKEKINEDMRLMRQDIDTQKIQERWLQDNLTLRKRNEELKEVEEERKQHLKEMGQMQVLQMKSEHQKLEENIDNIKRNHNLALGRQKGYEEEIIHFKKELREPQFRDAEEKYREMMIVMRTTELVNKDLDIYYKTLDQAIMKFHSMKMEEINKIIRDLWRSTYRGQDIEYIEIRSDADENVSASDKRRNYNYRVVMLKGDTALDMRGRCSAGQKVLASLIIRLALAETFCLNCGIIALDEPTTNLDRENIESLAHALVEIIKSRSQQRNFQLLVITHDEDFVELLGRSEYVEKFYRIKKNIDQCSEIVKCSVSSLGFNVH

For the test, the target named is T1, Flag-tagged Xrs2 (codon optimised synthetic XRS2) (S. cerevisiae) (UniProt P33301).
T1 sequence: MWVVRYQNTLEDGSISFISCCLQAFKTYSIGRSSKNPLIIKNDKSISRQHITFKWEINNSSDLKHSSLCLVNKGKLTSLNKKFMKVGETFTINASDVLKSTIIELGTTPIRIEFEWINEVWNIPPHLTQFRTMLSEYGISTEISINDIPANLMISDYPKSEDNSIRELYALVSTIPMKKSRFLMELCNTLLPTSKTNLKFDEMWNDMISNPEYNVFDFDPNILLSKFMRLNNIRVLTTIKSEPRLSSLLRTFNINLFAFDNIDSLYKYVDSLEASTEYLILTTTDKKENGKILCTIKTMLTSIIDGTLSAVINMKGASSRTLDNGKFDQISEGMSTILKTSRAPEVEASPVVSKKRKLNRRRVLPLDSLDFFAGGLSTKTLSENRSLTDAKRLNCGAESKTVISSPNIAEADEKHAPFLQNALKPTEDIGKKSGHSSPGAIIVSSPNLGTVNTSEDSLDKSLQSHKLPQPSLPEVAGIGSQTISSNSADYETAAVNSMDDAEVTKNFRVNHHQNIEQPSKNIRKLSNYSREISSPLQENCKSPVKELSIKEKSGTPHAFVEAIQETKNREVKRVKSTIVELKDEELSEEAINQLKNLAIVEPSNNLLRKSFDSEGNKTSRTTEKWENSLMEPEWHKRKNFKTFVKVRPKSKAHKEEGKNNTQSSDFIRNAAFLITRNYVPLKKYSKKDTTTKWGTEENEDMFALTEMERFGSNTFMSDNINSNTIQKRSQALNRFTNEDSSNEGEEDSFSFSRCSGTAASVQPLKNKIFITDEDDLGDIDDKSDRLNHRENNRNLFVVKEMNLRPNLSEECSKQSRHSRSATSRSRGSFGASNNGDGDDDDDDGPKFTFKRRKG
In words: co-IP; lysates of transfected HEK293 cells (50 mM Tris-HCl pH 7.5, 150 mM NaCl, 5 mM EDTA, 0.3% Triton X-100) precipitated with Flag antibody and Dynabeads Protein G for 3 h, washed four times; immunoblot for MRE11 and RAD50. For orientation: A western blot detects proteins with antibodies after separation by electrophoresis.

Consider RAD50 (from UniProt Q92878 1-1312), for which the binding entry is recorded as “no binding”.

(Values after publication PMC6237358.)
